{"source": "PubChem BioAssay AID1224830 (NIAID, 2016)", "purpose": "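Genes whose knock-down alters the TNF-alpha reporter response to LPS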 (primary screen)", "cell system": "human THP-1 monocytic leukaemia cells, TNF dual-luciferase reporter clone, PMA-differentiated to macrophage-like cells", "knock-down reagent": "siRNA pool against human genes, 50 nM", "timing": "LPS for 4 h, given about 3 days after siRNA transfection", "challenge": "bacterial LPS (TLR4 ligand), 10 ng/ml", "read-out": "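TNF firefly reporter luminescence divided by renilla, normalised to the plate median, then turned into a robust z-score for each replicate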", "scale": "TNF reporter robust z-score: higher = stronger TNF reporter response to LPS", "rule for the call": "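a well is active when its z-score exceeds 2.8 or falls below -1.5; control wells carry no call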", "note": "Here is a random part of about 18,000 reagents. Over the whole deposit, about 2,900 (16%) were called active. 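Calls are made per well; low scores hint the gene aids the LPS response, high scores that it dampens it.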 Unmarked entries are inactive. Repeated entries: four replicate wells of each siRNA pool."}
The opening 4 records, ahead of the listing:
{"Target gene": "NRG2", "TNF reporter robust z-score": 0.31}
{"Target gene": "NRG2", "TNF reporter robust z-score": 0.23}
{"Target gene": "NRG2", "TNF reporter robust z-score": -0.02}
{"Target gene": "NRG2", "TNF reporter robust z-score": 0.32}

Main list, from the start:
{"Target gene": "NRG2", "TNF reporter robust z-score": 0.31}
{"Target gene": "NRG2", "TNF reporter robust z-score": 0.23}
{"Target gene": "NRG2", "TNF reporter robust z-score": -0.02}
{"Target gene": "NRG2", "TNF reporter robust z-score": 0.32}
{"Target gene": "ATP11C", "TNF reporter robust z-score": 1.13}
{"Target gene": "ATP11C", "TNF reporter robust z-score": "3.64 (active)"}
{"Target gene": "ATP11C", "TNF reporter robust z-score": -0.01}
{"Target gene": "ATP11C", "TNF reporter robust z-score": "3.6 (active)"}
{"Target gene": "NDUFA6", "TNF reporter robust z-score": 0.04}
{"Target gene": "NDUFA6", "TNF reporter robust z-score": 0.69}
{"Target gene": "NDUFA6", "TNF reporter robust z-score": 2.09}
{"Target gene": "NDUFA6", "TNF reporter robust z-score": 0.7}
{"Target gene": "TMEM61", "TNF reporter robust z-score": -0.49}
{"Target gene": "TMEM61", "TNF reporter robust z-score": -0.07}
{"Target gene": "TMEM61", "TNF reporter robust z-score": -0.32}
{"Target gene": "TMEM61", "TNF reporter robust z-score": -0.26}
{"Target gene": "PLEKHG6", "TNF reporter robust z-score": -0.88}
{"Target gene": "PLEKHG6", "TNF reporter robust z-score": -0.65}
{"Target gene": "PLEKHG6", "TNF reporter robust z-score": -0.34}
{"Target gene": "UQCC2", "TNF reporter robust z-score": -1.32}
{"Target gene": "UQCC2", "TNF reporter robust z-score": -0.23}
{"Target gene": "UQCC2", "TNF reporter robust z-score": -1.17}
{"Target gene": "UQCC2", "TNF reporter robust z-score": 0.43}
{"Target gene": "SETDB2", "TNF reporter robust z-score": 1.33}
{"Target gene": "SETDB2", "TNF reporter robust z-score": 0.35}
{"Target gene": "SETDB2", "TNF reporter robust z-score": 1.69}
{"Target gene": "SETDB2", "TNF reporter robust z-score": 1.18}
{"Target gene": "BANF2", "TNF reporter robust z-score": -0.77}
{"Target gene": "BANF2", "TNF reporter robust z-score": -1.41}
{"Target gene": "BANF2", "TNF reporter robust z-score": -0.32}
{"Target gene": "BANF2", "TNF reporter robust z-score": 0.11}
{"Target gene": "LZIC", "TNF reporter robust z-score": 0.08}
{"Target gene": "LZIC", "TNF reporter robust z-score": 0.75}
{"Target gene": "LZIC", "TNF reporter robust z-score": -0.79}
{"Target gene": "LZIC", "TNF reporter robust z-score": 1.08}
{"Target gene": "MATN1", "TNF reporter robust z-score": -0.01}
{"Target gene": "MATN1", "TNF reporter robust z-score": 0.08}
{"Target gene": "MATN1", "TNF reporter robust z-score": 2.06}
{"Target gene": "MATN1", "TNF reporter robust z-score": "5.46 (active)"}
{"Target gene": "GAGE6", "TNF reporter robust z-score": -1.49}
{"Target gene": "GAGE6", "TNF reporter robust z-score": -0.74}
{"Target gene": "GAGE6", "TNF reporter robust z-score": 0.1}
{"Target gene": "GAGE6", "TNF reporter robust z-score": -1.31}
{"Target gene": "NR2E1", "TNF reporter robust z-score": 1.51}
{"Target gene": "NR2E1", "TNF reporter robust z-score": 0.34}
{"Target gene": "NR2E1", "TNF reporter robust z-score": 1.22}
{"Target gene": "NR2E1", "TNF reporter robust z-score": 0.14}
